Reference: US10563263B2, “Genetic polymorphisms associated with statin response and cardiovascular diseases, methods of detection and uses thereof” (CELERA CORPORATION, priority 2010, dated 2020)
This continues a long series; more values of the same kind are listed elsewhere.

Tested on: CHD
Assay: Meta-analysis of CARE and WOSCOPS combined, synergy index, CHD endpoint
Type: in vivo, human
Source text: Tables 4-5 provide meta-analyses of CARE and WOSCOPS combined (2nd section of each table) for two endpoints (CHD and CVD) and three genetic models (dominant, recessive, and additive), as well as logistic regression analyses of CARE (3rd section of each table) and WOSCOPS (4th section of each table) individually.
Tables 12 and 17 provide results of meta-analysis of the CARE and WOSCOPS sample sets combined by direct genotyping and by imputing genotypes.
“P” indicates the p-value, and “P(R)” (or “P.R.”) indicates the p-value random effect. Both of these are p-values corresponding to a statistical test of whether the combined synergy index is equal to one but use different assumptions to derive the p-value. “P” is calculated using a fixed effects model, and “P(R)” is calculated using a random effects model.
“OR” indicates the odds ratio (synergy index) calculated from a fixed effects model, and “OR(R)” (or “OR.R.”) indicates the odds ratio (synergy index) calculated from a random effects model.

## CC[C@H](C)C(=O)O[C@H]1C[C@H](O)C=C2C=C[C@H](C)[C@H](CC[C@@H](O)C[C@@H](O)CC(=O)O)[C@H]21 [Pravastatin, pravastatin]
Marker rs2574, A1 C (non-ref), A2 G (ref)
  Meta-analysis OR: 1.53
Marker rs4773, A1 A (non-ref), A2 G (ref)
  Meta-analysis OR: 0.69
Marker rs7508, A1 G (non-ref), A2 A (ref)
  Meta-analysis OR: 1.48
Marker rs9857, A1 G (non-ref), A2 A (ref)
  Meta-analysis OR: 0.74
Marker rs9960, A1 A (non-ref), A2 G (ref)
  Meta-analysis OR: 1.47
Marker rs198460, A1 G (non-ref), A2 A (ref)
  Meta-analysis OR: 1.56
Marker rs198464, A1 G (non-ref), A2 A (ref)
  Meta-analysis OR: 1.57
Marker rs198476, A1 G (non-ref), A2 A (ref)
  Meta-analysis OR: 1.67
Marker rs208025, A1 A (non-ref), A2 G (ref)
  Meta-analysis OR: 1.41
Marker rs238250, A1 A (non-ref), A2 C (ref)
  Meta-analysis OR: 1.46
Marker rs251817, A1 A (non-ref), A2 G (ref)
  Meta-analysis OR: 2.19
Marker rs264122, A1 A (non-ref), A2 G (ref)
  Meta-analysis OR: 0.62
Marker rs271046, A1 A (non-ref), A2 G (ref)
  Meta-analysis OR: 0.57
Marker rs475420, A1 G (non-ref), A2 A (ref)
  Meta-analysis OR: 1.63
Marker rs494111, A1 G (non-ref), A2 A (ref)
  Meta-analysis OR: 0.57
Marker rs498657, A1 G (non-ref), A2 A (ref)
  Meta-analysis OR: 1.47
Marker rs581401, A1 A (non-ref), A2 G (ref)
  Meta-analysis OR: 0.59
Marker rs603940, A1 G (non-ref), A2 A (ref)
  Meta-analysis OR: 0.59
Marker rs619825, A1 G (non-ref), A2 A (ref)
  Meta-analysis OR: 0.56
Marker rs623400, A1 A (non-ref), A2 G (ref)
  Meta-analysis OR: 0.70
Marker rs623584, A1 A (non-ref), A2 G (ref)
  Meta-analysis OR: 0.59
Marker rs646749, A1 A (non-ref), A2 G (ref)
  Meta-analysis OR: 0.56
Marker rs675163, A1 C (non-ref), A2 A (ref)
  Meta-analysis OR: 0.67
Marker rs694780, A1 G (non-ref), A2 A (ref)
  Meta-analysis OR: 0.55
Marker rs892162, A1 G (non-ref), A2 A (ref)
  Meta-analysis OR: 0.60
Marker rs974950, A1 A (non-ref), A2 G (ref)
  Meta-analysis OR: 0.67
Marker rs996022, A1 C (non-ref), A2 A (ref)
  Meta-analysis OR: 0.57
Marker rs1003322, A1 A (non-ref), A2 C (ref)
  Meta-analysis OR: 1.51
Marker rs1009748, A1 A (non-ref), A2 G (ref)
  Meta-analysis OR: 1.37
Marker rs1015199, A1 G (non-ref), A2 A (ref)
  Meta-analysis OR: 1.72
Marker rs1045916, A1 G (non-ref), A2 A (ref)
  Meta-analysis OR: 0.74
Marker rs1068705, A1 G (non-ref), A2 A (ref)
  Meta-analysis OR: 0.66
Marker rs1129570, A1 C (non-ref), A2 A (ref)
  Meta-analysis OR: 1.42
Marker rs1136046, A1 A (non-ref), A2 G (ref)
  Meta-analysis OR: 1.48
Marker rs1155875, A1 G (non-ref), A2 A (ref)
  Meta-analysis OR: 0.77
Marker rs1190706, A1 A (non-ref), A2 C (ref)
  Meta-analysis OR: 0.67
Marker rs1266489, A1 A (non-ref), A2 G (ref)
  Meta-analysis OR: 0.67
Marker rs1336400, A1 A (non-ref), A2 G (ref)
  Meta-analysis OR: 1.60
Marker rs1344081, A1 G (non-ref), A2 A (ref)
  Meta-analysis OR: 1.45
Marker rs1352236, A1 A (non-ref), A2 G (ref)
  Meta-analysis OR: 0.44
Marker rs1439269, A1 A (non-ref), A2 G (ref)
  Meta-analysis OR: 1.39
Marker rs1450092, A1 G (non-ref), A2 A (ref)
  Meta-analysis OR: 0.69
Marker rs1505469, A1 G (non-ref), A2 A (ref)
  Meta-analysis OR: 1.50
Marker rs1524962, A1 A (non-ref), A2 G (ref)
  Meta-analysis OR: 0.72
Marker rs1531842, A1 A (non-ref), A2 C (ref)
  Meta-analysis OR: 0.68
Marker rs1566221, A1 G (non-ref), A2 A (ref)
  Meta-analysis OR: 0.56
Marker rs1727746, A1 A (non-ref), A2 G (ref)
  Meta-analysis OR: 1.47
Marker rs1798093, A1 G (non-ref), A2 A (ref)
  Meta-analysis OR: 1.75
Marker rs1942876, A1 A (non-ref), A2 G (ref)
  Meta-analysis OR: 0.56
Marker rs2011318, A1 A (non-ref), A2 G (ref)
  Meta-analysis OR: 0.64
Marker rs2060022, A1 G (non-ref), A2 A (ref)
  Meta-analysis OR: 0.64
Marker rs2108425, A1 A (non-ref), A2 G (ref)
  Meta-analysis OR: 0.63
Marker rs2110564, A1 A (non-ref), A2 C (ref)
  Meta-analysis OR: 0.66
Marker rs2113334, A1 A (non-ref), A2 G (ref)
  Meta-analysis OR: 0.41
Marker rs2327412, A1 G (non-ref), A2 A (ref)
  Meta-analysis OR: 1.37
Marker rs2505039, A1 A (non-ref), A2 G (ref)
  Meta-analysis OR: 0.76
Marker rs2588350, A1 A (non-ref), A2 G (ref)
  Meta-analysis OR: 0.72
Marker rs2616548, A1 G (non-ref), A2 A (ref)
  Meta-analysis OR: 1.57
Marker rs2616552, A1 A (non-ref), A2 C (ref)
  Meta-analysis OR: 1.42
Marker rs2648694, A1 A (non-ref), A2 G (ref)
  Meta-analysis OR: 1.98
Marker rs2655222, A1 A (non-ref), A2 G (ref)
  Meta-analysis OR: 0.29
Marker rs2657940, A1 A (non-ref), A2 G (ref)
  Meta-analysis OR: 1.40
Marker rs2748901, A1 G (non-ref), A2 A (ref)
  Meta-analysis OR: 1.58
Marker rs2993156, A1 A (non-ref), A2 G (ref)
  Meta-analysis OR: 0.66
Marker rs3763978, A1 G (non-ref), A2 C (ref)
  Meta-analysis OR: 0.75
Marker rs3800202, A1 A (non-ref), A2 G (ref)
  Meta-analysis OR: 0.48
Marker rs4038018, A1 G (non-ref), A2 A (ref)
  Meta-analysis OR: 0.65
Marker rs4240808, A1 A (non-ref), A2 G (ref)
  Meta-analysis OR: 0.61
Marker rs4242281, A1 A (non-ref), A2 C (ref)
  Meta-analysis OR: 1.93
Marker rs4251580, A1 A (non-ref), A2 G (ref)
  Meta-analysis OR: 0.69
Marker rs4420312, A1 A (non-ref), A2 G (ref)
  Meta-analysis OR: 0.66
Marker rs4472926, A1 G (non-ref), A2 A (ref)
  Meta-analysis OR: 0.66
Marker rs4660234, A1 A (non-ref), A2 G (ref)
  Meta-analysis OR: 1.56
Marker rs4686740, A1 A (non-ref), A2 G (ref)
  Meta-analysis OR: 1.55
Marker rs4787415, A1 A (non-ref), A2 G (ref)
  Meta-analysis OR: 0.60
Marker rs4807536, A1 A (non-ref), A2 G (ref)
  Meta-analysis OR: 2.00
Marker rs4836745, A1 A (non-ref), A2 G (ref)
  Meta-analysis OR: 0.68
Marker rs4870109, A1 A (non-ref), A2 G (ref)
  Meta-analysis OR: 1.86
Marker rs6040760, A1 G (non-ref), A2 A (ref)
  Meta-analysis OR: 1.47
Marker rs6427807, A1 C (non-ref), A2 A (ref)
  Meta-analysis OR: 0.68
Marker rs6435378, A1 A (non-ref), A2 G (ref)
  Meta-analysis OR: 0.67
Marker rs6474228, A1 A (non-ref), A2 G (ref)
  Meta-analysis OR: 1.54
Marker rs6539231, A1 A (non-ref), A2 G (ref)
  Meta-analysis OR: 0.65
Marker rs6563805, A1 A (non-ref), A2 G (ref)
  Meta-analysis OR: 0.65
Marker rs6585412, A1 A (non-ref), A2 G (ref)
  Meta-analysis OR: 1.53
Marker rs6685920, A1 A (non-ref), A2 G (ref)
  Meta-analysis OR: 1.60
Marker rs6742894, A1 G (non-ref), A2 A (ref)
  Meta-analysis OR: 1.53
Marker rs6746182, A1 A (non-ref), A2 G (ref)
  Meta-analysis OR: 1.49
Marker rs6848512, A1 G (non-ref), A2 A (ref)
  Meta-analysis OR: 0.66
Marker rs6998016, A1 A (non-ref), A2 G (ref)
  Meta-analysis OR: 3.99
Marker rs7018577, A1 A (non-ref), A2 G (ref)
  Meta-analysis OR: 1.50
Marker rs7067780, A1 A (non-ref), A2 G (ref)
  Meta-analysis OR: 1.53
Marker rs7070244, A1 G (non-ref), A2 A (ref)
  Meta-analysis OR: 1.45
Marker rs7078016, A1 C (non-ref), A2 A (ref)
  Meta-analysis OR: 1.54
Marker rs7222186, A1 A (non-ref), A2 G (ref)
  Meta-analysis OR: 0.64
Marker rs7276749, A1 A (non-ref), A2 C (ref)
  Meta-analysis OR: 0.46
Marker rs7305949, A1 G (non-ref), A2 A (ref)
  Meta-analysis OR: 2.22
